Test results: patent US7919580B2, “Polysaccharide-protein binding model and nano-fibril formation of a starch binding domain” (priority 2008, dated 2011)
Some entries repeat one wording, which the source may state once for all of them.

Assays:
[1] = Thioflavin T fluorescence (ThT) assay for fibril formation; type: physicochemical; conditions: for fibril formation (ThT fluorescence emission at 482 nm): peptide pretreated at 37° C.; for fibril formation (ThT fluorescence intensity at 482 nm): CT-14 variants, 37° C. for 72 h
Experimental: Purified SBDs or synthetic peptides were dissolved in 10 mM sodium-citrate or phosphate-citrate buffer to a final concentration of 100 μM (at indicated pH). […] The measurements were recorded in a Perkin Elmer LS-55 spectrofluorometer at 25° C.
The relative fluorescence, peaked at 482 nm, subtracted from the background of buffer from the total fluorescence were measured as the amount of fibrillar aggregates with the excitation wavelength (slit width=4 nm) set at 450 nm and monitoring emission wavelength (slit width=8 nm) set at from 470 to 630 nm.

[2] = Atomic force microscopy of CT-14 fibrils; type: physicochemical

CT-13: synthetic C-terminal near-end portion of SBD (DNNNSANYQVSTS; SITE (1)..(13); listed as Rhizopus oryzae)
fibril formation (ThT fluorescence emission at 482 nm) [1]: not ThT-positive

CT-14 (V10A): synthetic CT-14 peptide analog V10A (DNNNSANYQASTSK; Mutant CT-14 peptides.)
fibril formation (ThT fluorescence intensity at 482 nm) [1]: increase in fluorescence intensity at 482 nm similar to the wild type CT-14 peptide

CT-14: synthetic peptide corresponding to the last fourteen C-terminal residues of SBD (residues 95-108) (DNNNSANYQVSTSK; SITE (1)..(14); listed as Rhizopus oryzae)
ThT emission fluorescence intensity at 482 nm ([1]; 10 mM sodium-citrate or phosphate-citrate, pH 3.5): attenuated emission fluorescence intensity at 482 nm
fibril formation (ThT fluorescence at 482 nm) ([1]; Tris buffer, pH above 8.0, 72 h (data not shown)): abolished fibril formation
ThT fluorescence intensity ([1]; pH 4.5, 5.5, or 6.5): stronger than that at pH 3.5
fibril formation (ThT fluorescence emission at 482 nm) [1]: formed amyloid-like fibrils
fibril formation (ThT fluorescence) ([1]; phosphate-citrate buffer, pH 2.0, 2.5, and 3.0): no fibril formation
fibril morphology by AFM ([2]; 0 h): only spherical structures were observed
fibril morphology by AFM ([2]; 37° C. for 6 h): small protofibrils started to form
length of mature fibrils by AFM ([2]; 37° C., 12 h): > 200 nm
fibril morphology by AFM ([2]; 37° C., 24 h): fibril aggregation occurred along with an elongation step

CT-14 (N3A): synthetic CT-14 peptide analog N3A (DNANSANYQVSTSK; Mutant CT-14 peptides.)
fibril formation (ThT fluorescence intensity at 482 nm) [1]: none

CT-14 (N4A): synthetic CT-14 peptide analog N4A (DNNASANYQVSTSK; Mutant CT-14 peptides.)
fibril formation (ThT fluorescence intensity at 482 nm) [1]: none

CT-14 (K14D): synthetic CT-14 peptide analog K14D (DNNNSANYQVSTSD; Mutant CT-14 peptides.)
fibril formation (ThT fluorescence intensity at 482 nm) [1]: none

CT-14 (S11A): synthetic CT-14 peptide analog S11A (DNNNSANYQVATSK; Mutant CT-14 peptides.)
fibril formation (ThT fluorescence intensity at 482 nm) [1]: increase in fluorescence intensity at 482 nm similar to the wild type CT-14 peptide

CT-14 (D1K): synthetic CT-14 peptide analog D1K (KNNNSANYQVSTSK; Mutant CT-14 peptides.)
fibril formation (ThT fluorescence intensity at 482 nm) [1]: none

CT-14 (N2A): synthetic CT-14 peptide analog N2A (DANNSANYQVSTSK; Mutant CT-14 peptides.)
fibril formation (ThT fluorescence intensity at 482 nm) [1]: none

CT-13′: synthetic C-terminal near-end portion of SBD (NNNSANYQVSTSK; SITE (1)..(13); listed as Rhizopus oryzae)
fibril formation (ThT fluorescence emission at 482 nm) [1]: not ThT-positive

CT-14 (D1A): synthetic CT-14 peptide analog D1A (ANNNSANYQVSTSK; Mutant CT-14 peptides.)
fibril formation (ThT fluorescence intensity at 482 nm) [1]: none

CT-14 (Y8A): synthetic CT-14 peptide analog Y8A (DNNNSANAQVSTSK; Mutant CT-14 peptides.)
fibril formation (ThT fluorescence intensity at 482 nm) [1]: none

CT-14 (K14A): synthetic CT-14 peptide analog K14A (DNNNSANYQVSTSA; Mutant CT-14 peptides.)
fibril formation (ThT fluorescence intensity at 482 nm) [1]: none

CT-14 (Q9A): synthetic CT-14 peptide analog Q9A (DNNNSANYAVSTSK; Mutant CT-14 peptides.)
fibril formation (ThT fluorescence intensity at 482 nm) [1]: none

CT-14 (T12A): synthetic CT-14 peptide analog T12A (DNNNSANYQVSASK; Mutant CT-14 peptides.)
fibril formation (ThT fluorescence intensity at 482 nm) [1]: increase in fluorescence intensity at 482 nm similar to the wild type CT-14 peptide

CT-14 (S5A): synthetic CT-14 peptide analog S5A (DNNNAANYQVSTSK; Mutant CT-14 peptides.)
fibril formation (ThT fluorescence intensity at 482 nm) [1]: increase in fluorescence intensity at 482 nm similar to the wild type CT-14 peptide

CT-14 (D1K+K14D): synthetic CT-14 peptide analog D1K+K14D (KNNNSANYQVSTSD; Mutant CT-14 peptides.)
fibril formation (ThT fluorescence intensity at 482 nm) [1]: increase in fluorescence intensity at 482 nm similar to the wild type CT-14 peptide

CT-14 (D1A+K14A): synthetic CT-14 peptide analog D1A+K14A (ANNNSANYQVSTSA; Mutant CT-14 peptides.)
fibril formation (ThT fluorescence intensity at 482 nm) [1]: none

CT-14 (N7A): synthetic CT-14 peptide analog N7A (DNNNSAAYQVSTSK; Mutant CT-14 peptides.)
fibril formation (ThT fluorescence intensity at 482 nm) [1]: none

CT-12′: synthetic C-terminal near-end portion of SBD (NNNSANYQVSTS; SITE (1)..(12); listed as Rhizopus oryzae)
fibril formation (ThT fluorescence emission at 482 nm) [1]: not ThT-positive

CT-14 (S13A): synthetic CT-14 peptide analog S13A (DNNNSANYQVSTAK; Mutant CT-14 peptides.)
fibril formation (ThT fluorescence intensity at 482 nm) [1]: increase in fluorescence intensity at 482 nm similar to the wild type CT-14 peptide
